This is an account of results in article PMC3933784.

No constants are given. Whether binding was seen depends on the method and setting. Some binding calls cover weakened binding; strength is not graded here.

For the experiment, the target named is plant actin 7 (UniProt P53492). In words: two-hybrid; yeast two-hybrid; told as 'Minina et al., 2009 and unpublished data'; bait and prey not told.

B1: At-4/1 protein (protein, UniProt Q1PE49 1-247)
chain: MAATSDEQMNLLLSSFDQIYEDFKIGLNEINVYRSKSNVESSRREVLEISNKNLKEENERLKKLYTESLNNFADQLEHRTKCHSLKEELKRVNDENKSKEHEHRNALESLRQKHVTKVEELEYKIRSLLVEKATNDMVIDRLRQDLTANKSHIQAMSKKLDRVVTEVECKYELEIQDLKDCLLMEQAEKNDISNKLQSLQKELLISRTSIAEKQRDTTSNRQVETLKQKLMKLRKENEILKRKLSSS
With B1, the binding result was “binds”.
